Data from PubChem BioAssay AID1259354 (Paczesny and Yang Labs, IUPUI and University of Michigan, 2018).
Values joined by “and” are separate entries in the source; they are usually repeats but may differ in a detail not shown here. Equal values may be shown once. Out of some 78,000 compounds screened, about 1,800 (2.3%) were called active. Inconclusive means that the source gave no clear call. Such entries were picked first, then a sample of the others. Cut-off read from the data, not from the text of the source: active = inhibition above about 30%; inconclusive = mostly about 10% to 28%; inactive = weaker than that.

The chains behind the UniProt entries cited, without tags or fusion partners. Where a name states a change or a piece, a line headed by the entry shows the natural chain unless it says otherwise.
UniProt Q01638: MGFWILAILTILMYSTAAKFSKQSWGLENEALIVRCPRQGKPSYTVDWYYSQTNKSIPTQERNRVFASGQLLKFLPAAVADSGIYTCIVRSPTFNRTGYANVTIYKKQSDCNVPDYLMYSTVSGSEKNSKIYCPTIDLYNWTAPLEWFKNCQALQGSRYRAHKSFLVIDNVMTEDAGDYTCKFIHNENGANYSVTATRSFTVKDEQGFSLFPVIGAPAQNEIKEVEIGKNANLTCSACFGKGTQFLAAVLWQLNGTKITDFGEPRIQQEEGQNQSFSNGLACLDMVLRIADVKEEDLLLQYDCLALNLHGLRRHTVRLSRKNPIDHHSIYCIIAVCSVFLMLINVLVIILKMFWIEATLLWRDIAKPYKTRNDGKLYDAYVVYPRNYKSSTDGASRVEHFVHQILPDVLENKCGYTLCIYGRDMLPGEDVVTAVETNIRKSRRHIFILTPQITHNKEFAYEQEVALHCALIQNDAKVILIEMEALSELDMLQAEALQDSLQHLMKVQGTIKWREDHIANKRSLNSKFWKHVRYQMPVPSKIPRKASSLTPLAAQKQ

These molecules were tested against Interleukin-1 receptor-like 1 (Homo sapiens) (UniProt Q01638) (assay: blocks human ST2 binding to IL-33, primary screen, biochemical, AlphaLISA (AID 1259354)). Conditions: AlphaLISA ST2-Fc/biotin-IL-33 interaction, 1 h; at 17 µM, hits give high values.
`O=C(Nc1cc([N+](=O)[O-])ccc1F)c1cnc2n(c1=O)CCS2` was tested, and the inhibition was inconclusive: 19%. With `O=C(CCCn1c(=O)[nH]c2ccc(Br)cc2c1=O)N1CCN(c2ccccc2)CC1` the inhibition was inconclusive: 14%. `CC1CCCN(C2CC(=O)N(c3ccc(Br)cc3)C2=O)C1` (stereo not given) was tested, and the inhibition was inconclusive: 11%. With `Cc1nc2c(ccc3nc(NC(=O)c4ccc(Br)s4)sc32)s1` the inhibition was inconclusive: 21%. `Cc1nc2sccn2c(=O)c1CCN1CCC(=C(c2ccc(F)cc2)c2ccc(F)cc2)CC1` was tested, and the inhibition was inconclusive: 13%. In the case of `CC(=O)Nc1cccc(C(=O)NC(C)c2ccc(C)cc2C)c1` (stereo not given), the inhibition is reported as inconclusive: 19%. In the case of `CCOC(=O)c1cc(-c2cccs2)nc2ccccc12`, the inhibition is reported as inconclusive: 22%. In the case of `c1ccc(NNC2=Nc3ccccc3CC2)cc1`, the inhibition is reported as inconclusive: 18%. In the case of `CC(C)Oc1ccc2cc(C(=O)N3[C@@H]4CC[C@H]3CNC(=O)C4)c(=O)oc2c1`, the inhibition is reported as inconclusive: 14%. With `CCOC(=O)c1nc(Nc2cc(Cl)ccc2OC)c2ccccc2n1` the inhibition was inconclusive: 20%. With `O=C1NCCN2CCN(C(=O)CCc3ccc(-c4cccs4)o3)CC12` (stereo not given) the inhibition was inconclusive: 20%. With `CN(CC(=O)N1CCc2ccccc2C1)S(=O)(=O)c1ccc(Br)cc1` the inhibition was inconclusive: 13%. With `NC1=Nc2ccccc2CCC1` the inhibition was “inactive”. With `CC1=C(C(=O)OCc2ccccc2)C(c2ccccc2)n2ncnc2N1` (stereo not given) the inhibition was “inactive”. In the case of `OC(CN(c1ccccc1)c1ccccc1)Cn1cnc2ccccc21` (stereo not given), the inhibition is reported as inconclusive: 15%. In the case of `CCOC(=O)C1=C(C)NC(C)=C(C(=O)OC)C1c1cccc(Cl)c1Cl` (stereo not given), the inhibition is reported as inconclusive: 24%. In the case of `CCCCN(C)CCNC(=O)c1ccc2c(c1)NC(=O)C(N1CCCCC1)S2` (stereo not given), the inhibition is reported as inconclusive: 15%. With `O=C(c1ccc2nc3ccc(Cl)cc3c(=O)n2c1)N1CCN(c2cccc(Cl)c2)CC1` the inhibition was inconclusive: 10%. In the case of `N#Cc1c(N=c2oc3ccc(Br)cc3cc2C(N)=O)sc2c1CCCC2`, the inhibition is reported as “inactive”. `CCCC(=O)NCCCc1nc2ccccc2n1CCC` was tested, and the inhibition was inconclusive: 10%. In the case of `O=C(NCc1ccccn1)C(=O)Nc1ccc2c(c1)OCO2`, the inhibition is reported as inconclusive: 28%. For `Cc1occc1C(=O)N1CC[C@@H](c2ccc3ccccc3c2)[C@H](O)C1`, the inhibition was inconclusive: 16%. For `C=CCn1c(SCC(=O)Nc2cccc(Cl)c2Cl)nc2sc(C)cc2c1=O`, the inhibition was inconclusive: 11%. With `COCCNC(=O)c1noc2c1CCc1ccccc1-2` the inhibition was inconclusive: 11%. For `CN1CCN(CC(=O)Nc2ccc(OC(F)(F)Cl)cc2)CC1`, the inhibition was “inactive”. For `O=[N+]([O-])c1cccc(-c2ncnn2-c2ccc(Br)cc2F)c1`, the inhibition was “inactive”. With `Cc1ccc(CC2SC(=Nc3ccccc3)NC2=O)cc1` (stereo not given) the inhibition was inconclusive: 23%. With `COc1ccc(Br)cc1C(=O)Nc1ccccc1Cl` the inhibition was inconclusive: 15%. In the case of `Cc1ccc(-n2c(N)c(C#N)c3nc4ccccc4nc32)cc1Cl`, the inhibition is reported as “inactive”. With `O=C(Nc1nonc1NC(=O)C1CC1)C1CC1` the inhibition was “inactive”. In the case of `COc1cccc(NC(=O)CCC2CCN(Cc3ccon3)CC2)c1`, the inhibition is reported as inconclusive: 21%. `O=C(Cn1nc(-c2ccccc2)ccc1=O)NCC1CCCO1` (stereo not given) was tested, and the inhibition was inconclusive: 17%. With `Cc1cc(C)n2cc(CN3CCN(c4ccc(C(F)(F)F)cc4[N+](=O)[O-])CC3)nc2n1` the inhibition was inconclusive: 12%. In the case of `COc1ccc(OC)c(C2CC(c3ccc(C)cc3)=NN2C(C)=O)c1` (stereo not given), the inhibition is reported as inconclusive: 10%. `C(=C\c1ccccc1)/CSc1nnc(-c2ccncc2)o1` was tested, and the inhibition was inconclusive: 11%. In the case of `CCN(C)c1ccc(C=Nc2c(C)n(C)n(-c3ccccc3)c2=O)cc1`, the inhibition is reported as “inactive”. In the case of `Cc1nn(C)c(C)c1CCC(=O)NC1CCCc2c1cnn2-c1ccc(F)cc1F` (stereo not given), the inhibition is reported as “inactive”. For `CN(CCc1nc2ccc(F)cc2[nH]1)C(=O)c1cn(CC2CCCCC2)nn1`, the inhibition was “inactive”. With `Cc1ccnc(SCCn2c(N3CCC(C)CC3)nc3c2c(=O)n(C)c(=O)n3C)n1` the inhibition was inconclusive: 17% and inconclusive: 11%. `CCC(CC)N(CCc1ccccc1)C(=O)c1cccc(=O)[nH]1` was tested, and the inhibition was “inactive”. For `COc1ccc(C2C(C#N)=C(N)OC3=C2C(=O)CC(C)(C)C3)cc1COc1ccc(Cl)cc1` (stereo not given), the inhibition was “inactive”. With `CC1(O)N(CCN)C(=O)OC12CCCCC2` (stereo not given) the inhibition was “inactive”. For `C[N+](C)(C)CCOC(N)=O`, the inhibition was inconclusive: 10%. `Cc1cc(O)c(NC(=O)c2ccc(Br)o2)cc1C` was tested, and the inhibition was inconclusive: 15%. `CN(Cc1ccc2c(c1)OCO2)C(=O)C1CCCN1C(=O)C1CCCCC1` (stereo not given) was tested, and the inhibition was inconclusive: 18%. For `Cc1cc(C(=O)NCc2ccc(F)cc2)ccc1[N+](=O)[O-]`, the inhibition was active: 52%. For `O=S(=O)(NCCC1CCCN(Cc2ccco2)C1)C1CC1` (stereo not given), the inhibition was “inactive”. `O=c1[nH]c2c(Cl)c(Cl)c(Cl)cc2o1` was tested, and the inhibition was inconclusive: 11%. In the case of `CCN(CC)CCCNCc1ccc(OC)cc1OC`, the inhibition is reported as “inactive”. In the case of `N#CC(C#N)=C1C(Cl)=C(N2CCCCC2)c2ccccc21`, the inhibition is reported as active: 82%. For `COC(=O)C1=C(NC(=O)c2ccc(OC)cc2)CCS1`, the inhibition was inconclusive: 26%. In the case of `CN(C)CCN(C)Cc1ccc(N(C)C)cc1`, the inhibition is reported as inconclusive: 18%. In the case of `O=C1CC(COCc2ccccc2)c2cnn(Cc3cccc(F)c3)c2N1` (stereo not given), the inhibition is reported as “inactive”. In the case of `Cc1oc(-c2ccc(Cl)cc2)nc1CN1CCC(C(=O)NCc2ccc3c(c2)OCO3)CC1`, the inhibition is reported as inconclusive: 12%. In the case of `COCCNC(=O)c1cc2c(-c3ccc(Cl)cc3)nn(C)c2s1`, the inhibition is reported as inconclusive: 10%. In the case of `COc1ccc(Cl)cc1NC(=O)Cn1cnc2c(cnn2-c2ccc(Cl)cc2)c1=O`, the inhibition is reported as inconclusive: 14%. In the case of `Cc1oc2cc(Br)c(OCC(=O)OCc3ccccc3)cc2c1C(=O)OC(C)C`, the inhibition is reported as “inactive”. In the case of `O=C1NC(=O)/C(=C\c2ccc(OCc3ccc(I)cc3)cc2)N1`, the inhibition is reported as “inactive”. With `C=CCc1ccc(OCC(O)COc2ccc(CC=C)cc2OC)c(OC)c1` the inhibition was “inactive”. With `CC1(C)CC(=O)C2=C(C1)N(c1ccc(Br)cc1F)C(N)=C(C#N)C2c1cccs1` (stereo not given) the inhibition was inconclusive: 15% and inconclusive: 14%. In the case of `Cc1ccc(-c2ccc(C(=O)NCCCn3ccnc3C(C)C)cn2)cc1`, the inhibition is reported as “inactive”. With `CCN1C(=O)C=CC1=O` the inhibition was inconclusive: 12%. With `CS(=O)(=O)N(CC(=O)Nc1ccccc1C(N)=O)c1cccc(Cl)c1Cl` the inhibition was inconclusive: 14%. For `COCCCN1C2=C(C(=O)CC(C)(C)C2)C(c2ccccc2OC)C2=C1CC(C)(C)CC2=O`, the inhibition was inconclusive: 16%. For `Cc1ccc(C)c(OCc2cc(C(=O)N(C)Cc3ccc(-n4cccn4)cc3)no2)c1`, the inhibition was “inactive”. With `CCN(Cc1ccncc1)C1CCCN(S(=O)(=O)c2cc3ccccc3s2)C1` (stereo not given) the inhibition was inconclusive: 19%. With `COc1ccc(C2=NN(C(=O)c3cccs3)C(c3ccccc3Cl)C2)cc1` (stereo not given) the inhibition was “inactive”. For `Cc1ccc(NC(=O)CN(c2ccc(F)cc2)S(C)(=O)=O)cc1Cl`, the inhibition was “inactive”. In the case of `Cc1nn(-c2ccccn2)c2c1C(=O)/C(=C/Nc1cccc(C(F)(F)F)c1)CC2`, the inhibition is reported as active: 35%. For `COc1ccc(NC(=O)CN2C(=O)C3CCCCN3c3ccc(C(=O)N(C)C)cc32)cc1OC` (stereo not given), the inhibition was “inactive”. For `Cc1nn(C)c(C)c1C(C)NC(=O)C(=O)c1cccs1` (stereo not given), the inhibition was “inactive”. With `CCCc1cn(C2CCN(C(=O)c3cc4c(nc3OC)CCC4)CC2)nn1` the inhibition was inconclusive: 10%. `CSCCC(NC(=O)c1ccccc1)C(=O)Nc1ccc(Br)cc1` (stereo not given) was tested, and the inhibition was inconclusive: 17%. For `CCOc1ccc(C2C(C(=O)OC(C)C)=C(C)NC3=C2C(=O)C(C(=O)OC)C(C)C3)cc1OC` (stereo not given), the inhibition was “inactive”. In the case of `NCCn1cc(C(=O)N2CCCC(CCc3ccc(F)cc3)C2)nn1` (stereo not given), the inhibition is reported as inconclusive: 19%. With `COc1ccc2nc(N3CCC(C(=O)N4CCCC4)CC3)sc2c1` the inhibition was “inactive”. `Cc1[nH]c2ccccc2c1C(C[N+](=O)[O-])c1ccc2c(c1)OCO2` (stereo not given) was tested, and the inhibition was inconclusive: 13% and inconclusive: 11%. For `O=C(c1ccccc1)c1ccc(OC(=O)N2CCCCC2)cc1`, the inhibition was inconclusive: 11%. `Cc1ccc(S(=O)(=O)n2c([N+](=O)[O-])cnc2C)c(C)c1` was tested, and the inhibition was “inactive”. For `COc1ccc(C2C(C(=O)OC3CCCCC3)=C(C)Nc3ncnn32)c(OC)c1OC` (stereo not given), the inhibition was inconclusive: 17%. In the case of `O=C(Nc1nn[nH]n1)c1ccc(Br)o1`, the inhibition is reported as inconclusive: 28%. With `N#C/C(=C\Nc1ccc(F)cc1)c1nc(-c2cc3ccccc3oc2=O)cs1` the inhibition was inconclusive: 28%. `Cc1cccc(C)c1NC(=O)c1cc2c(=O)n3cccc(C)c3nc2s1` was tested, and the inhibition was “inactive”. In the case of `CCCC(=O)N(c1ccc2oc(C)c(C(=O)OCC)c2c1)S(=O)(=O)c1ccc(Cl)cc1`, the inhibition is reported as inconclusive: 14%. For `CCC1(C)CC(=O)NC1=O` (stereo not given), the inhibition was inconclusive: 11%. With `CCC1C(=O)OC23C=C[C@@H]4C(C(=O)O)=CO[C@H](O[C@@H]12)[C@@H]43` (stereo not given in full) the inhibition was inconclusive: 15%. With `O=c1[nH]nc(CCn2cccn2)n1-c1ccccc1-c1ccccc1` the inhibition was inconclusive: 17%. For `CCN(CCn1cccn1)c1nc2nonc2nc1NCc1cccs1`, the inhibition was inconclusive: 11%. For `Cc1nnsc1C(=O)N[C@H]1CCN(C(=O)CSCC(=O)O)[C@H](C(=O)N[C@H](Cc2ccccc2)C(N)=O)C1`, the inhibition was inconclusive: 14%. With `Cc1ccc(-c2nn(-c3cccc(F)c3)cc2CN2CCC(C(O)c3nccn3C)CC2)o1` (stereo not given) the inhibition was inconclusive: 19%. `O=C1CCCC2=C1C(c1cccc(F)c1)c1c(nc(SCc3ccccc3)[nH]c1=O)N2` (stereo not given) was tested, and the inhibition was inconclusive: 10%. In the case of `COc1cccc(N2C(=O)C(N3C(=O)c4ccc([N+](=O)[O-])cc4C3=O)C2c2cccs2)c1` (stereo not given), the inhibition is reported as inconclusive: 28%. For `COc1ccc(OC)c(S(=O)(=O)N2CCN(c3nc(C)cc(Nc4ccc(C)cc4)n3)CC2)c1`, the inhibition was inconclusive: 23%. In the case of `CSc1ccc(-c2nc(CN3CCc4nc(N)sc4C3)c(C)o2)cc1`, the inhibition is reported as inconclusive: 20%. In the case of `COC(=O)c1ccc(-n2c(/C=C\c3ccccc3F)nc3ccccc3c2=O)cc1`, the inhibition is reported as inconclusive: 15%.
